Test results reported in the supplement of paper PMC10735217.
Counter-ions that a name gives are not always drawn. Some of the results follow. This data set is noisy: repeats of one test often differ as much as different tests do.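 Human kidney-derived cells stably carry a construct in which eight TEAD-binding elements drive luciferase, measured by luminescence in a drug-repurposing library screen. A hit is any compound whose signal exceeds the plate mean by more than five robust Z scores.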

System: HEK293A TEAD-LUC reporter
Assay: TEAD-luciferase reporter activity (YAP activation), robust Z score vs plate; higher = stronger YAP/TEAD activation
Conditions: 24 h

Structure (SMILES) | TEAD-luciferase reporter activity (compound concentration: 200 nM) | TEAD-luciferase reporter activity (compound concentration: 2 uM) | TEAD-luciferase reporter activity (compound concentration: 10 uM)
CN(C)C[C@H]1C[C@@H]1c1c[nH]c2ccc(C#N)cc12 | inactive: -1.52 | inactive: -0.523 | inactive: -0.753
COc1cccc(NCC(F)Cn2c3ccc(Br)cc3c3cc(Br)ccc32)n1 (single isomer, unassigned; (-)) | inactive: 1.61 | inactive: -0.379 | inactive: -0.415
O=C(Cc1ccc(C(F)(F)F)cc1)N1CCCCC1CN1CCCC1 (stereo unspecified) | inactive: 0.989 | inactive: 1.27 | inactive: -0.805
CC(=O)N(C)C(C)C(=O)c1ccc2c(c1)OCO2 (stereo unspecified) | inactive: -0.144 | inactive: -0.473 | inactive: 0.938
CCC(C)(CC)OC(N)=O | inactive: -0.323 | inactive: -0.557 | inactive: -0.278
CCCCCCCCCCCC(=O)OOC(=O)CCCCCCCCCCC | inactive: -0.593 | inactive: -0.526 | inactive: -0.577
CCCN(CCC)CCc1ccc(OC)c(OCCc2ccccc2)c1 | inactive: 4.56 | inactive: -1.89 | inactive: 0.0556
C#CCN1C(=O)NC2(CCN(CC(C)C)CC2)C1=O | inactive: 0.985 | inactive: -0.421 | inactive: -1.42
O=C(NCc1ccccn1)c1cnc(Nc2cccc(Cl)c2)nc1C(F)(F)F | inactive: -0.488 | inactive: -0.912 | inactive: 0.654
COc1ccc2c3c1O[C@@]1(C)C[C@@H](O)C=CC31CCN(C)C2 (stereo partly specified) | inactive: 2.2 | inactive: -0.417 | inactive: -1.15
Clc1ccc2c(c1)C(c1ccccc1)=NCc1nncn1-2 [Estazolam] | inactive: 0.0975 |  | inactive: 2.08
CN1C(=O)[C@@H](NC(=O)[C@H](CCC(F)(F)F)[C@@H](CCC(F)(F)F)C(N)=O)N=C(c2ccccc2)c2ccccc21 | inactive: -0.677 | inactive: -1.45 | inactive: -1.21
COc1ccc(CC(C)NCC(O)c2cc(N)cc(CO)c2)cc1 (stereo unspecified) | inactive: -1.76 | inactive: -1.22 | inactive: 1.08
c1cc2c(c(NC3=NCCN3)c1)CCC2 | inactive: -0.329 | inactive: 0.0864 | inactive: 4.63
C[C@@]1(O)CC[C@@]2(C)[C@@H](CC[C@@H]3C4CC[C@H](C(=O)CSS(=O)(=O)[O-])[C@@]4(C)CC[C@H]32)C1 (stereo partly specified) | inactive: -0.77 | inactive: 3.38 | active: 11.9
CC(=O)Nc1cc([As](=O)(O)O)ccc1O | inactive: -0.72 | inactive: 0.941 | inactive: 1.81
O=c1[nH]c2ccccc2n1C1CCN(CCCC(c2ccc(F)cc2)c2ccc(F)cc2)CC1 [pimozide] | inactive: -0.92 | inactive: -0.354 | inactive: 1.56
CN(C)CCNC(=O)C(C)(C)NC(=O)c1cc2c(n(CC3CCCCC3)c1=O)CCCCCC2 | inactive: 0.563 | inactive: 0.995 | inactive: 4.55
CCOCC1C(c2ccc(Cl)c(Cl)c2)C[C@@H]2CC[C@H]1N2C (stereo partly specified) | inactive: -0.754 | inactive: 0.298 | inactive: 1.92

Copied from above for reference:
Structure (SMILES) | TEAD-luciferase reporter activity (compound concentration: 200 nM) | TEAD-luciferase reporter activity (compound concentration: 2 uM) | TEAD-luciferase reporter activity (compound concentration: 10 uM)
CCCCCCCCCCCC(=O)OOC(=O)CCCCCCCCCCC | inactive: -0.593 | inactive: -0.526 | inactive: -0.577
CCCN(CCC)CCc1ccc(OC)c(OCCc2ccccc2)c1 | inactive: 4.56 | inactive: -1.89 | inactive: 0.0556
C#CCN1C(=O)NC2(CCN(CC(C)C)CC2)C1=O | inactive: 0.985 | inactive: -0.421 | inactive: -1.42
O=C(NCc1ccccn1)c1cnc(Nc2cccc(Cl)c2)nc1C(F)(F)F | inactive: -0.488 | inactive: -0.912 | inactive: 0.654
COc1ccc2c3c1O[C@@]1(C)C[C@@H](O)C=CC31CCN(C)C2 (stereo partly specified) | inactive: 2.2 | inactive: -0.417 | inactive: -1.15
Clc1ccc2c(c1)C(c1ccccc1)=NCc1nncn1-2 [Estazolam] | inactive: 0.0975 |  | inactive: 2.08
CN1C(=O)[C@@H](NC(=O)[C@H](CCC(F)(F)F)[C@@H](CCC(F)(F)F)C(N)=O)N=C(c2ccccc2)c2ccccc21 | inactive: -0.677 | inactive: -1.45 | inactive: -1.21
COc1ccc(CC(C)NCC(O)c2cc(N)cc(CO)c2)cc1 (stereo unspecified) | inactive: -1.76 | inactive: -1.22 | inactive: 1.08
c1cc2c(c(NC3=NCCN3)c1)CCC2 | inactive: -0.329 | inactive: 0.0864 | inactive: 4.63
C[C@@]1(O)CC[C@@]2(C)[C@@H](CC[C@@H]3C4CC[C@H](C(=O)CSS(=O)(=O)[O-])[C@@]4(C)CC[C@H]32)C1 (stereo partly specified) | inactive: -0.77 | inactive: 3.38 | active: 11.9

(next part)

Structure (SMILES) | TEAD-luciferase reporter activity (compound concentration: 200 nM) | TEAD-luciferase reporter activity (compound concentration: 2 uM) | TEAD-luciferase reporter activity (compound concentration: 10 uM)
CCN(Cc1ccc(Cl)nc1)/C(=C/[N+](=O)[O-])NC [Nitenpyram] | inactive: 2.11 | inactive: 0.7 | inactive: -1.07
COc1ccc(CC2NCCc3cc(OC)c(OC)cc32)cc1OC (stereo unspecified) | inactive: -0.248 | inactive: 0.717 | inactive: 4.11
C[C@]12Cc3cnn(-c4ccc(F)cc4)c3C=C1CC[C@@H]1[C@@H]2CC[C@@]2(C)[C@H]1CC[C@@]2(O)C#N | inactive: -0.45 | inactive: 1.36 | inactive: 1.31
O=C(O)C1=CCCN(CCOC(c2ccc(C(F)(F)F)cc2)c2ccc(C(F)(F)F)cc2)C1 | inactive: -2.15 | inactive: -1.28 | inactive: 0.714
CC(N)C(=O)O[C@H]1CC[C@H]2[C@@H]3CCc4cc(OC(=O)CN(CCl)CCCl)ccc4[C@H]3CC[C@]12C (stereo partly specified) | inactive: -1.95 | inactive: 0.589 | inactive: 4.98
Cc1nnc2n1-c1sc3c(c1C(c1ccccc1Cl)=NC2)CC(C(=O)N1CCOCC1)C3 (stereo unspecified) | inactive: 0.268 | inactive: -0.482 | inactive: 1.27
CC(C)(C)NCC(O)c1ccc(O)cc1Cl (stereo unspecified) | inactive: -0.676 | inactive: 1.27 | inactive: -0.789
CCCN(CCC)CCc1ccc(O)c(O)c1 [Dipropyldopamine hydrobromide] | inactive: -0.424 |  | inactive: 4.12
CCCN(CCC)CCc1ccc(O)c(O)c1 |  | inactive: -1.73 | 
C=CCN(C)C(C)(CO)Cc1ccc(Cl)c(Cl)c1 (stereo unspecified) | inactive: -0.894 | inactive: -0.0793 | inactive: 1.73
C[N+]1(C)[C@@H]2C[C@@H](OC(=O)[C@H](CO)c3ccccc3)C[C@H]1[C@@H]1O[C@@H]12 [Methscopolamine bromide] |  | inactive: 1.22 | 
C[N+]1(C)[C@@H]2C[C@@H](OC(=O)[C@H](CO)c3ccccc3)C[C@H]1[C@@H]1O[C@@H]12 | inactive: -0.778 |  | inactive: -0.786
Clc1ccc(-c2ccc(Cl)cc2Cl)cc1 | inactive: 2.14 | inactive: 2.54 | inactive: 1.48
OC1(c2ccc(-c3ccc4ncccc4c3)cc2)CN2CCC1CC2 (stereo unspecified) | inactive: -1.53 | inactive: -0.119 | inactive: 2.48
COC1C(O)[C@@H](O[C@H]2CC[C@@]3(C=O)[C@H](CC[C@@H]4[C@@H]3CC[C@]3(C)[C@@H](C5=CC(=O)OC5)CC[C@]43O)C2)OC(C)[C@H]1O (stereo partly specified) [Peruvoside] | active: 25.5 | inactive: -2.4 | active: 6.65
Oc1ccc2c3c1O[C@H]1[C@@H](O)CC[C@@]4(O)[C@@H](C2)N(CC2CCC2)CC[C@]314 [Nalbuphine HCl] | inactive: 0.711 |  | inactive: -0.777
Oc1ccc2c3c1O[C@H]1[C@@H](O)CC[C@@]4(O)[C@@H](C2)N(CC2CCC2)CC[C@]314 [Nalbuphine hydrochloride] |  | inactive: -0.349 | 
CC[C@H]1CN2CC[C@H]1C[C@H]2[C@H](O)c1ccnc2ccc(OC)cc12 | inactive: -1.9 | inactive: -0.217 | active: 6.32
